Laboratory results published in patent US6319897A, “Peptides which inhibit complement activation” (priority 1999, dated 2001).
Part of at least one peptide drawing is inferred or uncertain, most often the ends. Where a SMILES comes first, the peptide text is derived from it. Bridges are numbered along the chain shown (N, C = ends). The star is where a group is joined. Cam = NC(=O)C*

Amino acid sequences for entries named in this document (tags omitted). Residues count along the entry.
UniProt P01024, 23-667 limits assumed: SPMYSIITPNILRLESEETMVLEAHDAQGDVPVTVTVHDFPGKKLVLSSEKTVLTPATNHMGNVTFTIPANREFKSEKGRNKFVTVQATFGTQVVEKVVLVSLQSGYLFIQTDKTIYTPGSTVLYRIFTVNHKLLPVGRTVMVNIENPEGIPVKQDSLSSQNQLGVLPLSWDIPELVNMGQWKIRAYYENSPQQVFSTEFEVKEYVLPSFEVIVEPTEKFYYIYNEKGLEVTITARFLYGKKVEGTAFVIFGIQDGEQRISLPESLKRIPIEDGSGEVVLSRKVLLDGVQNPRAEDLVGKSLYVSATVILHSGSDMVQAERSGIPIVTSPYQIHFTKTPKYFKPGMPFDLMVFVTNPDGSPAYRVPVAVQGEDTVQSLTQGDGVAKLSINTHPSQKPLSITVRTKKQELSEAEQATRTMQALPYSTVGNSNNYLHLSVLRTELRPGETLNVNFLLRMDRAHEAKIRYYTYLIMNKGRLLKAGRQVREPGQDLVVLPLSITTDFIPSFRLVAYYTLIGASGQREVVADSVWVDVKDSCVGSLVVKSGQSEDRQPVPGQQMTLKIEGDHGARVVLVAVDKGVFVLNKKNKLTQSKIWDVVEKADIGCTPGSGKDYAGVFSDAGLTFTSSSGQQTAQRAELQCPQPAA
UniProt P01024, 672-1663 limits assumed: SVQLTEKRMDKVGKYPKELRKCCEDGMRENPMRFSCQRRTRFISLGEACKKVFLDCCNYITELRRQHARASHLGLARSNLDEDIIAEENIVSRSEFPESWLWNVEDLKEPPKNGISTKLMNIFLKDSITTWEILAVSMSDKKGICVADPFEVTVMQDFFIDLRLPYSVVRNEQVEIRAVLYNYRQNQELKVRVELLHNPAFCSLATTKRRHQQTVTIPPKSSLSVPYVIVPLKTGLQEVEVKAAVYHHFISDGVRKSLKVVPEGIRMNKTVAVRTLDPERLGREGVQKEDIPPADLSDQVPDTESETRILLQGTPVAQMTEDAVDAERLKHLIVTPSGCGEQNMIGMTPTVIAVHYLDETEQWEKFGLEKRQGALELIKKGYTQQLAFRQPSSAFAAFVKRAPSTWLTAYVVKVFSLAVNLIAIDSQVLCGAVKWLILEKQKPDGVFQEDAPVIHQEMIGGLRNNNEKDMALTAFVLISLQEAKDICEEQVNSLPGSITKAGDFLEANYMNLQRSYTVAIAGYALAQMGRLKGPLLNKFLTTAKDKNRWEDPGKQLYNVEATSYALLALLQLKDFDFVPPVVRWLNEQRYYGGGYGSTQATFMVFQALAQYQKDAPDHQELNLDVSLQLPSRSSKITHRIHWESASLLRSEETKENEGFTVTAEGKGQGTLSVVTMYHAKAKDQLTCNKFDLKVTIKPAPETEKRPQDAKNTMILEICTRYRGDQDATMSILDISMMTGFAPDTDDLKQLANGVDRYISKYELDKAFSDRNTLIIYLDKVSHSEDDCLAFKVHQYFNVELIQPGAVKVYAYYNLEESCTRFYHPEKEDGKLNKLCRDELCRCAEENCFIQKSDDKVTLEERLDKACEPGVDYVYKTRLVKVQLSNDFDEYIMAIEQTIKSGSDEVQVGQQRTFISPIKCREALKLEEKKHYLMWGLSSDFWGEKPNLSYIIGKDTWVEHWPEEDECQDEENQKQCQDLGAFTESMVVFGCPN
UniProt P01024, 23-1663: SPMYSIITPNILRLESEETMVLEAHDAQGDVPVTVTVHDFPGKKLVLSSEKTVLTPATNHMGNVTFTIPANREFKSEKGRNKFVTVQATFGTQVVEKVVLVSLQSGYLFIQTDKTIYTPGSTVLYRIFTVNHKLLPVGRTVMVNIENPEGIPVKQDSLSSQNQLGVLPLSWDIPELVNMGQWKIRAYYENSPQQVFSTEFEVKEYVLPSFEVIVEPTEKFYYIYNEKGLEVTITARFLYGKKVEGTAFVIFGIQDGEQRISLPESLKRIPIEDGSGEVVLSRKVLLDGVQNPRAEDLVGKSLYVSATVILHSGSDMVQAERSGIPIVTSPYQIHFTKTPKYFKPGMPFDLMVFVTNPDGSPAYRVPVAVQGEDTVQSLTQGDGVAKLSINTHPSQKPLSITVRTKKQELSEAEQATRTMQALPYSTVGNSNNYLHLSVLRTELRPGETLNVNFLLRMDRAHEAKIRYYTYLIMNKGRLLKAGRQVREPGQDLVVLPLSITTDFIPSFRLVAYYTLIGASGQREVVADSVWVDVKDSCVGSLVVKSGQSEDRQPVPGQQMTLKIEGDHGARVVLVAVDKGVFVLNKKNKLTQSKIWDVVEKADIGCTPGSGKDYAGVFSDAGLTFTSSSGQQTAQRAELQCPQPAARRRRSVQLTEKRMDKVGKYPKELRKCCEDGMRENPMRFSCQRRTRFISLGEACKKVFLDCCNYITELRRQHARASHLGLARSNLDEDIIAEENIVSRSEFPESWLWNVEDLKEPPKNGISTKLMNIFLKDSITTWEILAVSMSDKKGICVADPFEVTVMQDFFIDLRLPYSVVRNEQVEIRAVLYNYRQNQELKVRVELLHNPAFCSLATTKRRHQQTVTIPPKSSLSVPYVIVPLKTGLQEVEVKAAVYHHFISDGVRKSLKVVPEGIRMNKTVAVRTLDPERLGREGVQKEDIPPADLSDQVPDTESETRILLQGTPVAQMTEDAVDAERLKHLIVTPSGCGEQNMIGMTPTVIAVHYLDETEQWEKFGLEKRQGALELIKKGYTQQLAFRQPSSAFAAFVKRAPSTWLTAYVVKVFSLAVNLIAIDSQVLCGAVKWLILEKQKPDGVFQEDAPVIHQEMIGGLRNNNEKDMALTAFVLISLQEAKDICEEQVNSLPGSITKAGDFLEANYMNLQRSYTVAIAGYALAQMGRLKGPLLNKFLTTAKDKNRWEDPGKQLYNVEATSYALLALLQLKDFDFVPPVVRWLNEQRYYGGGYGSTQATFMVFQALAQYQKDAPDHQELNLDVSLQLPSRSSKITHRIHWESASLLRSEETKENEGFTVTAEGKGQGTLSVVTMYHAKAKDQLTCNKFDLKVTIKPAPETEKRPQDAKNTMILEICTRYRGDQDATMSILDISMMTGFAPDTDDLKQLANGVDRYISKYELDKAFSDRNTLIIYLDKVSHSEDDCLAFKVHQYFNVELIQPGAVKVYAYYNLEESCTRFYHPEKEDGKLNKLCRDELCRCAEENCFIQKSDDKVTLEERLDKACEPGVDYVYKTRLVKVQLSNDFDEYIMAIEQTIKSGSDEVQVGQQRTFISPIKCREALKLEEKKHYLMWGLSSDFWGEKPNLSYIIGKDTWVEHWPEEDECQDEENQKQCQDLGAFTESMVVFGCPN
UniProt P01024, 1321-1663 limits assumed: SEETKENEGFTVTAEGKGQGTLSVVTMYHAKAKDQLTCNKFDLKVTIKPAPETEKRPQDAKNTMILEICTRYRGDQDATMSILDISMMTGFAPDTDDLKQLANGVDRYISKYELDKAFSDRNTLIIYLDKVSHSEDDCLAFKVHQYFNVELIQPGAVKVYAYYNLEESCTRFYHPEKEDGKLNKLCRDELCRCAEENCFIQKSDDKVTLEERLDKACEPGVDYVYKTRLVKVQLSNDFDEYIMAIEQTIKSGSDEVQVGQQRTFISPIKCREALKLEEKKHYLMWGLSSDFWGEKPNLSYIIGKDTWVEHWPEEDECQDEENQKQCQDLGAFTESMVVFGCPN
UniProt P01024, 749-954 limits assumed: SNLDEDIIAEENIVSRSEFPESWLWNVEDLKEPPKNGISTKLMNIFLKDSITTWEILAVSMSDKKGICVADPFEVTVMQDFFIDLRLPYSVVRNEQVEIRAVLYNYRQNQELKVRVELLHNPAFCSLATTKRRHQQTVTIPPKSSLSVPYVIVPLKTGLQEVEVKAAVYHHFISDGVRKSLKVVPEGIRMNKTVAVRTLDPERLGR
UniProt P01024, 1002-1303 limits assumed: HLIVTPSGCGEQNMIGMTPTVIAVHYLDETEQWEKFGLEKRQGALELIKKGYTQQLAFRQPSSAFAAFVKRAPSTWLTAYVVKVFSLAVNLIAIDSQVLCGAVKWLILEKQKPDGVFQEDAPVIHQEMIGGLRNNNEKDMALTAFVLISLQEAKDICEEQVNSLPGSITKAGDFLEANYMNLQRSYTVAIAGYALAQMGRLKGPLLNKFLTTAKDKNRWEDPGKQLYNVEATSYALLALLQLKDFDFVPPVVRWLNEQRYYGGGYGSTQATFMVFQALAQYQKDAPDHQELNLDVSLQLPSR
UniProt P01024, 749-1663 limits assumed: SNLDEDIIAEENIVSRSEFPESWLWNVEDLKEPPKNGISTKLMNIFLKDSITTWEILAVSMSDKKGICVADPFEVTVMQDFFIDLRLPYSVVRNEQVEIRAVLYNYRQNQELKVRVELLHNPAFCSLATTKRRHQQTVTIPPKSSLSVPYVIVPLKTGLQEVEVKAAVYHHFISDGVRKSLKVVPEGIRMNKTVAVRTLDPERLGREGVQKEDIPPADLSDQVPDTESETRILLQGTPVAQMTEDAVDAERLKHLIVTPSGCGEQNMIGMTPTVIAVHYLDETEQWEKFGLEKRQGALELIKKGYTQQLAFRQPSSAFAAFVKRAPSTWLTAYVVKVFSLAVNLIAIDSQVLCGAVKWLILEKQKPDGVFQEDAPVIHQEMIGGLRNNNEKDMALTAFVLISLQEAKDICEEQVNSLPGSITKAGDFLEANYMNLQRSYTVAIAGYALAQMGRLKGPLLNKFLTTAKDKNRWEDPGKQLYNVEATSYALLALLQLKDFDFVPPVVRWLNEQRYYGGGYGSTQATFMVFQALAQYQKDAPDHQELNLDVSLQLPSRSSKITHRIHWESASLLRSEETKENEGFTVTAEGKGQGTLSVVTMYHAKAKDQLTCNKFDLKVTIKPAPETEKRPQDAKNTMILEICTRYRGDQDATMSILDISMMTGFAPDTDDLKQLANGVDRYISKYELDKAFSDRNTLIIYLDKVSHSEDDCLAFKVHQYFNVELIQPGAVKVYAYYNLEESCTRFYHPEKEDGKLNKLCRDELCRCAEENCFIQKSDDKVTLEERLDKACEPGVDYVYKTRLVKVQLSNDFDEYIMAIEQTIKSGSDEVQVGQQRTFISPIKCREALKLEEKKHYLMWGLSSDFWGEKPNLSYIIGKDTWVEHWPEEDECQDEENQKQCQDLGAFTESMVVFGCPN

Key:
swine complement = assay: Inhibition of swine complement; format: cell-based
monkey complement = assay: Inhibition of monkey complement; format: cell-based
complement [1] = assay: Complement inhibition in Rhesus monkeys; format: cell-based
guinea pig complement = assay: Inhibition of guinea pig complement; format: cell-based
complement [2] = assay: Complement inhibition in baboons; format: cell-based
[3] = tested on: classical pathway of complement activation; assay: Hemolytic assay, classical pathway: lysis of antibody-coated sheep erythrocytes in normal human serum; format: cell-based; settings: for IC50: antibody-coated sheep erythrocytes
mouse complement = assay: Lysis of rabbit erythrocytes by mouse complement; format: cell-based
complement [4] = assay: Complement inhibition in cynomolgus monkeys; format: cell-based
rat complement = assay: Lysis of rabbit erythrocytes by rat complement; format: cell-based
C3 [5] = target: T1, C3 (Homo sapiens, UniProt P01024); assay: C3 cleavage in alternative pathway reconstituted with purified C3, factor B and factor D; format: biochemical; set-up: purified from normal human plasma in accordance with well known procedures; from tissue; host or cells: normal human plasma (C3, factor B); settings: purified components; control peptide 200 μM
[6] = target: alternative pathway of complement activation (Homo sapiens, UniProt P01024); assay: Hemolytic assay, alternative pathway: lysis of rabbit erythrocytes in normal human serum with MgEGTA; format: cell-based; settings: for IC50: rabbit erythrocytes, MgEGTA
Procedure: Inhibition of the alternative pathway was measured by using rabbit erythrocytes in the presence of MgEGTA (FIG. 3A); inhibition of lysis of antibody-coated sheep erythrocytes was used as an indicator of inhibition of the classical pathway (FIG. 3B).
Inhibition of classical and alternative pathway activity by the peptides was measured. […] The reaction mixture was incubated at 37° C. for 1 hour and centrifuged. […] The effect of peptides on the alternative pathway was determined by measuring the lysis of rabbit erythrocytes (Er) in NHS. Various concentrations of peptide were mixed with 5 μl of NHS, 5 μl of MgEGTA and 10 μl of Er (1×10^9 /ml) and brought to a final volume of 100 μl in GVB. The reaction mixture was incubated at 37° C. for 20 minutes and stopped by adding 200 μl of GVBE. […] The percentage of lysis was normalized by considering 100% lysis to be equal to the lysis occurring in the absence of the peptide.

C3 [7] = target: T1, C3; assay: Hemolytic activity of C3-knockout mice reconstituted with human C3; format: cell-based
C3c = target: T2, C3c (Homo sapiens, UniProt P01024); assay: ELISA, immobilized peptide binding to C3c; settings: 1 hour 22° C.
T2 construct: C3c, 135,300 Mr fragment of C3 generated using elastase; from tissue; host or cells: normal human plasma; C3 treated with elastase, Mono Q purified

C3 [8] = target: T1, C3; assay: ELISA, immobilized peptide binding to C3; set-up: purified from normal human plasma in accordance with well known procedures; from tissue; host or cells: normal human plasma (C3, factor B); settings: 1 hour 22° C.
C3d = target: T3, C3d (Homo sapiens, UniProt P01024); assay: ELISA, immobilized peptide binding to C3d; settings: 1 hour 22° C.
T3 construct: C3d, 35,000 Mr fragment of C3 generated using elastase; from tissue; host or cells: normal human plasma; C3 treated with elastase, Mono Q purified

C3b = target: T4, C3b (Homo sapiens, UniProt P01024); assay: ELISA, immobilized peptide binding to C3b; settings: 1 hour 22° C.
T4 construct: from tissue; host or cells: normal human plasma; C3 cleaved with trypsin, Mono Q purified

## CC[C@H](C)[C@H](N)C(=O)N[C@H]1CSSC[C@@H](C(=O)N[C@H](C(N)=O)[C@@H](C)O)NC(=O)[C@H](CCCNC(=N)N)NC(=O)[C@H](Cc2c[nH]cn2)NC(=O)[C@H](Cc2c[nH]cn2)NC(=O)CNC(=O)[C@H](Cc2c[nH]c3ccccc23)NC(=O)[C@H](CC(=O)O)NC(=O)[C@H](CCC(N)=O)NC(=O)[C@H](C(C)C)NC(=O)[C@H](C(C)C)NC1=O [Peptide IV]
Swine complement
  inhibitory activity on complement: failed to inhibit
Monkey complement
  inhibitory activity on complement: inhibited
Complement [1]
  complement inhibition: comparable to that in humans
Guinea pig complement
  inhibitory activity on complement: failed to inhibit
Complement [2]
  complement inhibition: comparable to that in humans
[3]
  IC50: 63 µM
Mouse complement
  inhibitory activity on complement mediated lysis of rabbit erythrocytes: no inhibitory activity
Complement [4]
  complement inhibition: comparable to that in humans
Rat complement
  inhibitory activity on complement mediated lysis of rabbit erythrocytes: no inhibitory activity

## CC[C@H](C)[C@H](N)C(=O)N[C@@H](CSCC(N)=O)C(=O)N[C@H](C(=O)N[C@H](C(=O)N[C@@H](CCC(N)=O)C(=O)N[C@@H](CC(=O)O)C(=O)N[C@@H](Cc1c[nH]c2ccccc12)C(=O)NCC(=O)N[C@@H](Cc1c[nH]cn1)C(=O)N[C@@H](Cc1c[nH]cn1)C(=O)N[C@@H](CCCNC(=N)N)C(=O)N[C@@H](CSCC(N)=O)C(=O)N[C@H](C(N)=O)[C@@H](C)O)C(C)C)C(C)C [Peptide V]
[3]
  IC50: > 600 µM
C3 [5]
  effect on C3 cleavage: no effect

## CC[C@H](C)[C@H](N)C(=O)N[C@H]1CSSC[C@@H](C(=O)N[C@H](C(=O)N[C@@H](C)C(=O)NCC(=O)N[C@@H](Cc2c[nH]cn2)C(=O)N[C@@H](CCSC)C(=O)N[C@@H](C)C(=O)N[C@@H](CC(N)=O)C(=O)N[C@@H](CC(C)C)C(=O)N[C@H](C(=O)N[C@@H](CO)C(=O)N[C@@H](Cc2c[nH]cn2)C(=O)N[C@@H](C)C(=O)N[C@@H](CO)C(=O)N[C@@H](C)C(=O)N[C@H](C(N)=O)[C@@H](C)CC)[C@@H](C)O)[C@@H](C)O)NC(=O)[C@H](CCCNC(=N)N)NC(=O)[C@H](Cc2c[nH]cn2)NC(=O)[C@H](Cc2c[nH]cn2)NC(=O)CNC(=O)[C@H](Cc2c[nH]c3ccccc23)NC(=O)[C@H](CC(=O)O)NC(=O)[C@H](CCC(N)=O)NC(=O)[C@H](C(C)C)NC(=O)[C@H](C(C)C)NC1=O [Peptide I] (H-ICVVQDWGHHRCTAGHMANLTSHASAI-NH2; disulfide 2-12)
[6]
  IC50: 19 µM
C3 [7]
  inhibition of hemolytic activity: showed inhibition at concentrations similar to those seen for human serum
C3c
  binding of immobilized peptide to C3c: did not bind
[3]
  IC50: 65 µM
Mouse complement
  inhibitory activity on complement mediated lysis of rabbit erythrocytes: no inhibitory activity
C3 [8]
  binding of immobilized peptide to C3: bound
C3d
  binding of immobilized peptide to C3d: no binding
C3b
  binding of immobilized peptide to C3b: bound
Rat complement
  inhibitory activity on complement mediated lysis of rabbit erythrocytes: no inhibitory activity

## CC[C@H](C)[C@H](NC(=O)[C@H](C)NC(=O)[C@H](CO)NC(=O)[C@H](C)NC(=O)[C@H](Cc1c[nH]cn1)NC(=O)[C@H](CO)NC(=O)[C@@H](NC(=O)[C@H](CC(C)C)NC(=O)[C@H](CC(N)=O)NC(=O)[C@H](C)NC(=O)[C@H](CCSC)NC(=O)[C@H](Cc1c[nH]cn1)NC(=O)CNC(=O)[C@H](C)NC(=O)[C@@H](NC(=O)[C@H](C)NC(=O)[C@@H](N)CCCNC(=N)N)[C@@H](C)O)[C@@H](C)O)C(N)=O [III] (H-RATAGHMANLTSHASAI-NH2)
[6]
  inhibitory activity in alternative pathway-mediated hemolytic assay: no inhibitory activity
  IC50: > 300 µM
[3]
  inhibitory activity in classical pathway-mediated hemolytic assay: no inhibitory activity
  IC50: > 300 µM

## CC[C@H](C)[C@H](N)C(=O)N[C@@H](CSCC(N)=O)C(=O)N[C@H](C(=O)N[C@H](C(=O)N[C@@H](CCC(N)=O)C(=O)N[C@@H](CC(=O)O)C(=O)N[C@@H](Cc1c[nH]c2ccccc12)C(=O)NCC(=O)N[C@@H](Cc1c[nH]cn1)C(=O)N[C@@H](Cc1c[nH]cn1)C(=O)N[C@@H](CCCNC(=N)N)C(=O)N[C@@H](CSCC(N)=O)C(=O)N[C@H](C(=O)N[C@@H](C)C(=O)NCC(=O)N[C@@H](Cc1c[nH]cn1)C(=O)N[C@@H](CCSC)C(=O)N[C@@H](C)C(=O)N[C@@H](CC(N)=O)C(=O)N[C@@H](CC(C)C)C(=O)N[C@H](C(=O)N[C@@H](CO)C(=O)N[C@@H](Cc1c[nH]cn1)C(=O)N[C@@H](C)C(=O)N[C@@H](CO)C(=O)N[C@@H](C)C(=O)N[C@H](C(N)=O)[C@@H](C)CC)[C@@H](C)O)[C@@H](C)O)C(C)C)C(C)C [II] (H-IC(Cam)VVQDWGHHRC(Cam)TAGHMANLTSHASAI-NH2)
[3]
  IC50: > 300 µM
